No constants are given. Whether binding was seen depends on the method and setting. Some results given as binding are weak or reduced against the parent protein; the word gives no strength. Sequences can lack the tags named with a protein.
Assays:
[1] = target: 小鼠组织中的IGF1 (endogenous mouse IGF1 in lung and testis tissue) (mouse) (UniProt P05017); assay: Western blot of mouse lung tissue protein; nanobody as primary antibody, anti-His antibody for detection
[2] = target: 小鼠组织中的IGF1 (endogenous mouse IGF1 in lung and testis tissue) (mouse) (UniProt P05017); assay: immunohistochemistry on mouse testis sections; nanobody as primary antibody, HRP anti-His antibody

Amino acid sequences for entries named in this document (tags omitted). Residues count along the entry.
UniProt P05017, residues 49-118: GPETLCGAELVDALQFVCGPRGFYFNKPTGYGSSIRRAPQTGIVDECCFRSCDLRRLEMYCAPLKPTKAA

- binding [1]: binds
- binding [2]: binds
B1: IGF1纳米抗体 (purified, His-tagged IGF1 nanobody expressed in E. coli from pQE30) (VHH, not shown: small tags and cut ends)
VHH: ESGGGLVQPGGSLRLSCDETSSRTLDYYKIGWFRRAPGKEREGVSCTESNNGSTTYADSVKGRFTVSRDIAENKVYLQMKNLKPEDTGIYYCGADLEVFRRCSFVSNEYDYWGQGTQVTVSS
